# Measurements: PubChem BioAssay AID1347076 (National Center for Advancing Translational Sciences (NCATS), 2019)
# The campaign covered roughly 400,000 compounds. About 13,000 (3.2%) were called active. The inconclusive results got no clear call from the source; some entries with a clear call stand among them for comparison. The call rests on the fitted dose curve; in most records, active means well fitted cell-killing curve with a large enough effect; inconclusive means small, poorly fitted or top-dose-only effect, or effect the other way; inactive means flat fitted curve, though single readings scatter. A potency beside an inconclusive call is a rough fit, not a confirmed value.
# Assay: qHTS assay for MDR1-selective chemotherapeutics: Primary screen using the drug-selected MDR subline cells KB-V1; further: nearly all actives have a fitted effect of over 60% in size
# Conditions: KB-V1 MDR cells viability, CellTiter-Glo, 72 h; activity change, negative = cytotoxicity: at 46.1 µM (top of the series)
# Summary of the method: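 In this primary screen, KB-V1 cells overexpressing P-gp are incubated with library compounds (lowest to highest concentration) for 72 h at 37 degrees C before a luminescent ATP viability read.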
# On the % scale 0 is the no-effect control and ±100 the full control effect; potency means the concentration at half of the fitted maximal effect.
SMILES,Potency,"activity change, negative = cytotoxicity"
C[C@@H](c1ccccc1)N1C[C@@H](COCc2ccccc2)Oc2cc(N3CC[C@@H](O)C3)ccc2S1(=O)=O,inactive,
CCCCOc1ccc(-c2nc(=S)[nH][nH]2)cc1,inactive,
COc1cc(-c2[nH]nc3c2C(c2ccoc2)C(C#N)=C(N)O3)cc(OC)c1OC (configuration not stated),"inconclusive: 29.1 µM [rising, single point]",
O=S(=O)(NCc1ccco1)c1ccc2c(c1)Cc1ccccc1-2,inactive,
CCOc1ccccc1/C=C/c1onc(C)c1S(=O)(=O)N1CCC(C(=O)N2CCCCC2)CC1,inactive,
Cc1nc2ccccc2nc1SCC(=O)c1ccccc1,active: 2.59 µM,
COc1ccc2cc(C(=O)NCc3ccccc3CN3CCCC3)ccc2c1,inactive,
CC(=O)Nc1cccc(-c2nnc(SCC(=O)c3ccc([N+](=O)[O-])cc3)o2)c1,inactive,
COc1ccc(-c2noc(CNS(=O)(=O)c3ccc(NC(C)=O)cc3)n2)cc1,inactive,
O=c1[nH]cnc2c1[nH]c(=S)n2C1O[C@@H](CO)[C@H](O)[C@@H]1O (some centres not stated),"inconclusive: 7.31 µM [rising, partial curve, poor fit]",
CC1=NN(C(=O)c2ccc(Cn3nc(C)c([N+](=O)[O-])c3C)cc2)C(O)(C(F)(F)F)C1 (configuration not stated),active: 9.2 µM,
CC(=O)N/C(=C/c1ccc([N+](=O)[O-])cc1)C(=O)O,inactive,
CN(CCc1ccccc1)C1CCCN(S(=O)(=O)CC(F)(F)F)C1 (configuration not stated),"inconclusive: 0.0073 µM [rising, full curve, poor fit]",
O=[N+]([O-])c1ccc(N2CCN(Cc3ccccc3)CC2)nc1,inactive,
CC(=O)NCCc1ccc(-c2csc(NC(=O)C3CC(=O)N(C4CCCC4)C3)n2)cc1 (configuration not stated),"inconclusive: 29.1 µM [rising, single point]",
COCCNC(=O)C1(C)CCN(C(=O)c2ccc3c(c2)C(C)(C)CCC3(C)C)C1 (configuration not stated),inactive,
COc1cc(CN(C(=O)c2ccc(C)cc2)c2ccccn2)cc(OC)c1OC,inactive,
COc1cccc(C(C(=O)NC2CCCCC2)N(C(=O)Cc2cccs2)c2ccc(-n3cnnn3)c(OC)c2)c1 (configuration not stated),"inconclusive: 10.3 µM [cytotoxic, partial curve, poor fit]",
Cc1ccccc1-c1noc(CSc2nc(-c3ccc(F)cc3)cc(=O)[nH]2)n1,inactive,
O=C(Cn1cc(C(F)(F)F)cc(Cl)c1=O)NCCc1ccccc1,"inconclusive: 29.1 µM [cytotoxic, partial curve, poor fit]",
O=C(Nc1ccc(OCc2cc(=O)n3c4c(sc3n2)CCCC4)cc1)c1ccc(F)cc1,inactive,
CC(C)(CNS(=O)(=O)c1ccc2ccccc2c1)N1CCOCC1,inactive,
O=C(c1cc(Cl)ccc1F)N1CCCC(Nc2ccc3c(c2)OCCO3)C1 (configuration not stated),"inconclusive: 18.4 µM [cytotoxic, single point]",
CCN(CC)c1ccc(NC2=C(Cl)C(=O)c3ccccc3C2=O)cc1,"inconclusive: 29.1 µM [cytotoxic, single point]",

SMILES,Potency,"activity change, negative = cytotoxicity"
C=CCn1c(-c2ccc(S(=O)(=O)N3CCOCC3)cc2)csc1=Nc1ccccc1,inactive,
CCc1ccc(Nc2ncc3c(n2)CC(C)CC3=O)cc1 (configuration not stated),inactive,
CCc1ccccc1NS(=O)(=O)c1ccc2[nH]cc(C(=O)NC3CCCC3)c(=O)c2c1,"inconclusive: 23.1 µM [cytotoxic, partial curve, poor fit]",
CCOc1ccc(S(=O)(=O)NCc2ccccn2)cc1NC(=O)c1ccccc1F,"inconclusive: 7.31 µM [cytotoxic, partial curve]",
CCn1cnc2cc(NCc3ccncc3)ccc21,inactive,
Cc1cccc(OC(C)c2ccnc3nc(/N=C/N(C)C)nn23)c1 (configuration not stated),"inconclusive: 18.4 µM [cytotoxic, single point]",
CC(NC(=O)C12CC3CC(CC(C3)C1)C2)c1ccc(F)cc1 (configuration not stated),inactive,
COC(=O)C1(c2ccccc2)NC(c2cccs2)C2C(=O)N(c3ccccc3)C(=O)C21 (configuration not stated),active: 23.1 µM,
COC(=O)CCCCCN1C(=O)NC(C2CC2)C(C(=O)OCc2ccccc2)=C1C (configuration not stated),inactive,
COc1ccc(C2/C=C\CN(C(=O)Nc3ccc(C(F)(F)F)cc3)CC(=O)N2Cc2ccc(F)cc2)cc1 (configuration not stated),"inconclusive: 29.1 µM [cytotoxic, partial curve, poor fit]",
O=C(OCC(=O)c1c[nH]c2ccccc12)c1cccc(S(=O)(=O)N2CCCCCC2)c1,"inconclusive: 23.1 µM [cytotoxic, single point]",
CCOc1ccc(S(=O)(=O)Nc2cccc(C(=O)NCC(c3ccccc3)N(C)C)c2)cc1 (configuration not stated),"inconclusive: 29.1 µM [cytotoxic, single point]",
CCOc1ccc(C(=O)NCCc2sc(-c3cccc(F)c3)nc2C)cc1OCC,inactive,
Cc1cc(=O)n(-c2ccc3ccccc3n2)[nH]1,"inconclusive: 18.4 µM [cytotoxic, single point]",
Cc1ccc2c(c1)nc(NCCO)n2C,"inconclusive: 29.1 µM [rising, partial curve, poor fit]",
CN(CC(=O)Nc1ccccc1Cl)C(=O)c1cc2c(s1)CCCCC2,,inconclusive: -28.9%
Cc1ccc(S(=O)(=O)N(C)C)cc1NC(=O)CSc1ncc(C(F)(F)F)cc1Cl,"inconclusive: 18.4 µM [cytotoxic, partial curve]",
O=C(Nc1cccnc1)c1ccc([N+](=O)[O-])o1,"inconclusive: 23.1 µM [cytotoxic, single point]",
Nc1c(OS(=O)(=O)c2ccccc2)cccc1OS(=O)(=O)c1ccccc1,"inconclusive: 9.2 µM [cytotoxic, partial curve]",
O=[N+]([O-])c1cc2c(cc1/C=N/n1c(-c3ccccn3)n[nH]c1=S)OCO2,"inconclusive: 16.4 µM [cytotoxic, single point]",
O=C(Nc1ccc2c(c1)CCC2)c1ccccc1F,"inconclusive: 29.1 µM [cytotoxic, single point]",
Cc1ccc(CNC(=S)Nc2ccc(C)c([N+](=O)[O-])c2)cc1,"inconclusive: 29.1 µM [cytotoxic, single point]",
COc1ccc(OC)c(-c2csc(NC(=O)CSc3ccccc3)n2)c1,"inconclusive: 10.3 µM [cytotoxic, partial curve]",
CCOc1ccc(CCNC(=O)CSc2cc(=O)n(CC)c3ccccc23)cc1OCC,"inconclusive: 25.9 µM [cytotoxic, single point]",

SMILES,Potency,"activity change, negative = cytotoxicity"
CCC(C)NC(=O)c1c(N)n(/N=C/c2cccnc2)c2nc3ccccc3nc12 (configuration not stated),"inconclusive: 29.1 µM [cytotoxic, single point]",
COc1ccc(OC)c(NS(=O)(=O)c2ccc(SC)cc2)c1,active: 4.11 µM,
Cc1ccc(-n2nc3ccc(NC(=O)c4cccc([N+](=O)[O-])c4C)cc3n2)cc1,"inconclusive: 5.17 µM [cytotoxic, full curve]",
COc1cccc(/C=C/c2nc(C#N)c(N3CCCCCC3)o2)c1,inactive,
CC[C@]12c3[nH]c4ccc(Cl)cc4c3CCN1C(=O)[C@@H](CC(=O)NCc1ccc(OC)c(OC)c1)C[C@@H]2C(=O)N1CCN(C(=O)C2CC2)CC1,inactive,
Cc1onc(-c2ccccc2Cl)c1C(=O)Nc1ccc(F)c(F)c1,inactive,
O=C1CCN(CCCN2CCC(=O)N(Cc3ccccc3)C2=S)C(=S)N1Cc1ccccc1,"inconclusive: 23.1 µM [cytotoxic, partial curve, poor fit]",
COCc1c(C(=O)Nc2nnc(C3CC3)s2)oc2ccccc12,inactive,
c1ccc(N2CCN(c3ncnc4c3oc3ccccc34)CC2)cc1,active: 16.4 µM,
COc1ccc(C(CNc2ccc(S(C)(=O)=O)cc2[N+](=O)[O-])N(C)C)cc1OC (configuration not stated),"inconclusive: 16.4 µM [cytotoxic, partial curve]",
C/C(Cc1ccccc1)=N\NC(=O)CNC(=O)c1ccc(F)cc1,"inconclusive: 5.8 µM [rising, full curve, poor fit]",
Cc1cc(S(=O)(=O)Nc2ccc(N(C)C)cc2)c(C)s1,active: 16.4 µM,
CCOc1ccc(NC(=O)CCS(=O)(=O)c2cccc3nsnc23)cc1,"inconclusive: 32.6 µM [cytotoxic, partial curve, poor fit]",
O=C(Nc1cccc(C(F)(F)F)c1)C1CCN(S(=O)(=O)c2cccc3nsnc23)CC1,inactive,
CCCc1nc2oc3c(NCc4ccccn4)ncnc3c2c2c1COC(C)(C)C2,"inconclusive: 8.2 µM [cytotoxic, partial curve]",
O=C(CSc1ccc(Cl)cc1)Nc1cccc(-c2nc3ncccc3o2)c1,active: 14.6 µM,
COc1ccc(C(=O)Nc2ccccc2C(=O)Nc2cc(C)ccn2)cc1,"inconclusive: 32.6 µM [cytotoxic, single point]",
CCc1c(C)nc2ncnn2c1NCCc1ccc(OC)cc1,"inconclusive: 3.16 µM [cytotoxic, partial curve, poor fit]",
CC(=O)c1cc(C)c(OC(=O)c2ccccc2)c(C)c1,"inconclusive: 16.4 µM [cytotoxic, single point]",
CCCCOP(=O)(OCCCC)C(Nc1ccccc1)c1ccc2c(c1)OCO2 (configuration not stated),active: 7.31 µM,
O=[N+]([O-])c1cccc(-c2csc(Nc3ccccc3)n2)c1,"inconclusive: 8.2 µM [cytotoxic, partial curve, poor fit]",
CCC1(CC)C(=O)NC(=O)NC1=Nc1cccc(OC)c1,"inconclusive: 29.1 µM [rising, single point]",
Cc1ccc(C(=O)Nn2cnnc2)cc1,inactive,
O=C(Nc1ccc(OC(F)(F)F)cc1)C(Cc1ccccc1)NS(=O)(=O)c1cccc2nsnc12 (configuration not stated),inactive,

# An excerpt from above in order of formula weight, smallest number first.
SMILES,Potency,"activity change, negative = cytotoxicity"
Cc1ccc(C(=O)Nn2cnnc2)cc1,inactive,
CCc1c(C)nc2ncnn2c1NCCc1ccc(OC)cc1,"inconclusive: 3.16 µM [cytotoxic, partial curve, poor fit]",
CCCc1nc2oc3c(NCc4ccccn4)ncnc3c2c2c1COC(C)(C)C2,"inconclusive: 8.2 µM [cytotoxic, partial curve]",
O=C(Nc1ccc(OC(F)(F)F)cc1)C(Cc1ccccc1)NS(=O)(=O)c1cccc2nsnc12 (configuration not stated),inactive,
